Test results as given in the supplement of paper PMC12823440, “Inhibitors supercharge kinase turnover through native proteolytic circuits” (Nature, 2025).
This is one part of the list. Hit calls seldom repeat between salt and free forms of one compound.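 Kinases were expressed as nanoluciferase fusions in K562 cells and luminescence was read every 4 h between 2 and 18 h as percent of control, DMSO set to 100% and a positive control to 0%. A time point counts as decreased when the signal drops significantly (2 sigma). The hit call is the authors' own, does not follow from the count of time points alone, and its rule is not shown.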

Chains of the proteins cited; added tags and fusions are not shown. Lines headed by an entry give the natural chain unless they say otherwise; changes in a name come on top.
UniProt Q9UQM7, whole entry: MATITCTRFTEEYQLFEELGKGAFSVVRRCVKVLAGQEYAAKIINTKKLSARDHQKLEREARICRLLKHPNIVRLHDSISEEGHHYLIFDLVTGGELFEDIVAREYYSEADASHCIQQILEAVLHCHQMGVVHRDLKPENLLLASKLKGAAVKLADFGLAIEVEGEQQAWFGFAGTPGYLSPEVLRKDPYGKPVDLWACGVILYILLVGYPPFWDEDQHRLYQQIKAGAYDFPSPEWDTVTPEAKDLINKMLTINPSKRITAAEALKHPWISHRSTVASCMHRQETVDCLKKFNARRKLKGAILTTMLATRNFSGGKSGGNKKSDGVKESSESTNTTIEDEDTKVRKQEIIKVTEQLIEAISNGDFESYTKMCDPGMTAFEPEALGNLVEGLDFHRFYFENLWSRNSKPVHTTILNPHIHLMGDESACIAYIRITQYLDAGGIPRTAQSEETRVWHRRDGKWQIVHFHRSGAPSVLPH
UniProt Q13555: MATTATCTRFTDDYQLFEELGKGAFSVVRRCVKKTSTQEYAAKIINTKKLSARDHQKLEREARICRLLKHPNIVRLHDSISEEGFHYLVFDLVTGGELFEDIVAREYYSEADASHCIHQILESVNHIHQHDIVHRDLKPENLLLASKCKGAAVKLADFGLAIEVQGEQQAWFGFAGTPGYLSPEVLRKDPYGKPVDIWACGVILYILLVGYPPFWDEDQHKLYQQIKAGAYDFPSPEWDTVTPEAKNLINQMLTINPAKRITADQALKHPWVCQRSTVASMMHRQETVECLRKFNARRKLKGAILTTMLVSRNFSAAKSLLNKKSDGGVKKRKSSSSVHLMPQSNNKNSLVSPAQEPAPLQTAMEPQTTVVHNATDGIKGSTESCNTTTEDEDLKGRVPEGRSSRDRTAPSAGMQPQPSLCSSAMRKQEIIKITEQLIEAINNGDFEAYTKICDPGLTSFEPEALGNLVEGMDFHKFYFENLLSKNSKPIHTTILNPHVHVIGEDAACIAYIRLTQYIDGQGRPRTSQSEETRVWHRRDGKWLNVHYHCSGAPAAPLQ
UniProt Q15131: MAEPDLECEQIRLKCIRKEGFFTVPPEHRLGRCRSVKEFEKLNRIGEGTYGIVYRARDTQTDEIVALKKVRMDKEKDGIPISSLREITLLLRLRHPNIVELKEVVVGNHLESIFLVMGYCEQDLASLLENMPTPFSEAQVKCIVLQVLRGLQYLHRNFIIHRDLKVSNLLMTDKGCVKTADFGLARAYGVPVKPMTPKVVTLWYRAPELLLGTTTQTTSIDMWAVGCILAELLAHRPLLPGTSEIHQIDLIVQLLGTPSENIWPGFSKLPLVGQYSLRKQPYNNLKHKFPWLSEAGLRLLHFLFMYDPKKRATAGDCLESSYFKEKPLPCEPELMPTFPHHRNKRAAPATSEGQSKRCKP
UniProt Q00526: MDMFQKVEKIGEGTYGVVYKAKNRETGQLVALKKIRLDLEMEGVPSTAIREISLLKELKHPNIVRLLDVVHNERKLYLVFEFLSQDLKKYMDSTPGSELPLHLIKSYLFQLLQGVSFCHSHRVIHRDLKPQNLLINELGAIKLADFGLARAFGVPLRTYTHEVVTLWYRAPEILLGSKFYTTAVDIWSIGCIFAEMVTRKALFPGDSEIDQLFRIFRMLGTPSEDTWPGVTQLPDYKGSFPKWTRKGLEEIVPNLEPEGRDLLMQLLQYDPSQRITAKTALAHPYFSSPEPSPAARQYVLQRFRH
UniProt Q00535, whole entry, looked up: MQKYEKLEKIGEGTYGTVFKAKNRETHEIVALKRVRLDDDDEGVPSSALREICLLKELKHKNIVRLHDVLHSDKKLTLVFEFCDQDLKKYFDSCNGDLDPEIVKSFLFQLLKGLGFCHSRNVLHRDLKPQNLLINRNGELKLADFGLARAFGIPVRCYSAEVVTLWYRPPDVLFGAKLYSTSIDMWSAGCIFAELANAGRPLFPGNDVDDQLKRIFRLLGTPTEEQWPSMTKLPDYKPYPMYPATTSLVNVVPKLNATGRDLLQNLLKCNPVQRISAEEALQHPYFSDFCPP
UniProt P07333, whole entry: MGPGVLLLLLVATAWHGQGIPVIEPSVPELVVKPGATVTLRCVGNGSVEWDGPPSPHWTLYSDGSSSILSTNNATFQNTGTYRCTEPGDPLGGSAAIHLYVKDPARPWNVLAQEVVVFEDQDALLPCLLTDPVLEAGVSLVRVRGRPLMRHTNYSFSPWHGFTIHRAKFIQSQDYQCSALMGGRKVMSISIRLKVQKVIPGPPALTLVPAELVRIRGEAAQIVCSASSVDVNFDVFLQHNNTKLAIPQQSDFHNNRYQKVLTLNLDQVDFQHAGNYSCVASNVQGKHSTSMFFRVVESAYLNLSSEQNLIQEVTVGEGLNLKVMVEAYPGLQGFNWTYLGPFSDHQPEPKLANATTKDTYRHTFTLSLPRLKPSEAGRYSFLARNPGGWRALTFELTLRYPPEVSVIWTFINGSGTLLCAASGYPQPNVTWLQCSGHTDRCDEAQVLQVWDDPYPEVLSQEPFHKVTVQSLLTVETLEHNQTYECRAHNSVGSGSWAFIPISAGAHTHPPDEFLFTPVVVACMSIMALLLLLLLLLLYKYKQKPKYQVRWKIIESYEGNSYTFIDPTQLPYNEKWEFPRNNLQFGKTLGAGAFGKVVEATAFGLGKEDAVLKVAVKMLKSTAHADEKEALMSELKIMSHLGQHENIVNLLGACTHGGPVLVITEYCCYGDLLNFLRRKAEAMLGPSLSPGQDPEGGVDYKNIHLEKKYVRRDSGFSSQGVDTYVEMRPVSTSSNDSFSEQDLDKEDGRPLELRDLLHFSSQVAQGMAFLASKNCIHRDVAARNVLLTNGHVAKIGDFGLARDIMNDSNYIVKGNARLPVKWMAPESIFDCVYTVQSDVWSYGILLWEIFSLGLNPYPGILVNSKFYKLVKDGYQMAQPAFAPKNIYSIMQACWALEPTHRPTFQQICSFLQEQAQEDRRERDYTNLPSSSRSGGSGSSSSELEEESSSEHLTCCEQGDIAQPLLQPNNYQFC
UniProt P41240: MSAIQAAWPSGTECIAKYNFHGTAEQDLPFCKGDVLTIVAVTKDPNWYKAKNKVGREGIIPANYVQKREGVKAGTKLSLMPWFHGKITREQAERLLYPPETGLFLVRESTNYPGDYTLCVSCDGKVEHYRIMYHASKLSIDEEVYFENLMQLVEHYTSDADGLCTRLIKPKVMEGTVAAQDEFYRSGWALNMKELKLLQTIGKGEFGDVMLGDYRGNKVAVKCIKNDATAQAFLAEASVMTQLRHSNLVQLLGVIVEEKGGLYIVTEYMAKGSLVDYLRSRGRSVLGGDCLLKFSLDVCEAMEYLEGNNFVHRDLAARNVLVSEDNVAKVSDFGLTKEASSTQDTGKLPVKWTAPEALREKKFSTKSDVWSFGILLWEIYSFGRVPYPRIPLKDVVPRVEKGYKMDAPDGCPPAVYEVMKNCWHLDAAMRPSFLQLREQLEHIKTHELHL
UniProt P48729: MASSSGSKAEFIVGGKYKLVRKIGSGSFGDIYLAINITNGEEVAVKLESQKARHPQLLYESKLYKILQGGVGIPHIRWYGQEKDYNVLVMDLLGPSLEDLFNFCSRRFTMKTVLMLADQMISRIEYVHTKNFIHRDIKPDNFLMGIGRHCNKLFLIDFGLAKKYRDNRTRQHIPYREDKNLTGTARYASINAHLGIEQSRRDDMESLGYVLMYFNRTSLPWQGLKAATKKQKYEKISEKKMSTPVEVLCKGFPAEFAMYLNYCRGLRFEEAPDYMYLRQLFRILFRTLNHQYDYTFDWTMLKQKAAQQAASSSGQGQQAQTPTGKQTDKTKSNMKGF
UniProt Q08345: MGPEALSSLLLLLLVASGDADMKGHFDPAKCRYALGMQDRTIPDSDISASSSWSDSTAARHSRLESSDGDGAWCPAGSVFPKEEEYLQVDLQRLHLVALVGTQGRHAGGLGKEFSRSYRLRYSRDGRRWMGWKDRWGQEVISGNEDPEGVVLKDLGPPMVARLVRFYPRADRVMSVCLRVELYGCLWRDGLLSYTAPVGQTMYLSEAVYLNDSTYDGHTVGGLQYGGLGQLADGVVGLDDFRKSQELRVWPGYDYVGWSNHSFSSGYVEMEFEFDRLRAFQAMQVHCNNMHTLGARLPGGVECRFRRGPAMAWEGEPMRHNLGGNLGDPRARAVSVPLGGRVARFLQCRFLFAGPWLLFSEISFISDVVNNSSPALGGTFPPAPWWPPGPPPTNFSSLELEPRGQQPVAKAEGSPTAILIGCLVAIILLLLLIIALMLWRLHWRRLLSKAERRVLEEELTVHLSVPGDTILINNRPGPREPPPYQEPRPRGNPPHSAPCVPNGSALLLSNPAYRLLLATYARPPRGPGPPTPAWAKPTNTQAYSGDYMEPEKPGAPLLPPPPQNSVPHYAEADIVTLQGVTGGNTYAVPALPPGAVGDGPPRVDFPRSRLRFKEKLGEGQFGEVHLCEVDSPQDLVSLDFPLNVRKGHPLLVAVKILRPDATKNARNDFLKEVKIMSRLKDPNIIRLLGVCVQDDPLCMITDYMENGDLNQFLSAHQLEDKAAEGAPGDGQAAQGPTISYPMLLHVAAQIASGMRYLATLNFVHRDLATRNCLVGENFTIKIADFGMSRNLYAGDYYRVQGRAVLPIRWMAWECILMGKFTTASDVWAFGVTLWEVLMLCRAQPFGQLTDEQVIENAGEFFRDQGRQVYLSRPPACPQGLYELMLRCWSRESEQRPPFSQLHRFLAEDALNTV
UniProt Q9Y463, whole entry, looked up: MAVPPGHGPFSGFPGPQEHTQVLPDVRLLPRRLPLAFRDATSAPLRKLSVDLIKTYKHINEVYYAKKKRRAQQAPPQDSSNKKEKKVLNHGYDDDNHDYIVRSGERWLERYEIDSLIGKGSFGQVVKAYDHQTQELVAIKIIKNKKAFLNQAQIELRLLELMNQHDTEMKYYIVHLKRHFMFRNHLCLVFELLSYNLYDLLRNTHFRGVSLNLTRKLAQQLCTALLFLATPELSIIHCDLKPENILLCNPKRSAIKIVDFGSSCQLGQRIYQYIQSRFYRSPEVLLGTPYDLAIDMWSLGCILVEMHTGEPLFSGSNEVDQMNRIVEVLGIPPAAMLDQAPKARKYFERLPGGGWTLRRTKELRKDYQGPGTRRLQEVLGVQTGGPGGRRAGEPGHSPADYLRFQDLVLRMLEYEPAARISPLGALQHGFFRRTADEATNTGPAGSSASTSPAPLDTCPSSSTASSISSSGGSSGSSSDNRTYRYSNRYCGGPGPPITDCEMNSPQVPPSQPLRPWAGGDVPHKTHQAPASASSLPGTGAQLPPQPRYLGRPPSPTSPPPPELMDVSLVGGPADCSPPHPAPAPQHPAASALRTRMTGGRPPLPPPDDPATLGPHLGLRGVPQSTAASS
UniProt Q92630: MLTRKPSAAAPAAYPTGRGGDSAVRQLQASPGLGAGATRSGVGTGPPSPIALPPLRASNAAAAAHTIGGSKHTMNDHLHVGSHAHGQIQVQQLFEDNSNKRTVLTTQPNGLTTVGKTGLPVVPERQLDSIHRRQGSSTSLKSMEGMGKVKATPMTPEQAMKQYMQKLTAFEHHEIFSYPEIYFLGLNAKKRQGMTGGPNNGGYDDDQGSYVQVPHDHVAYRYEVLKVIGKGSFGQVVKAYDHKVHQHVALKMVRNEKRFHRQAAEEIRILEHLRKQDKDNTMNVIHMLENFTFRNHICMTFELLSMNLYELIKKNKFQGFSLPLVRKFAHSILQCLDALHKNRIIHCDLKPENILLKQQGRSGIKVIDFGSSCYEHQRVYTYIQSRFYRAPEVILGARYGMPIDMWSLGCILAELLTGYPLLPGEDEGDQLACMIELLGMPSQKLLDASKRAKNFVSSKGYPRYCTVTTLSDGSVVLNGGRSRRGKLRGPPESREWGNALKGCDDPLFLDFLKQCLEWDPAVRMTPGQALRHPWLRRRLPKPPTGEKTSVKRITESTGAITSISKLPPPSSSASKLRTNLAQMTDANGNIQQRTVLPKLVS
UniProt O96017, whole entry: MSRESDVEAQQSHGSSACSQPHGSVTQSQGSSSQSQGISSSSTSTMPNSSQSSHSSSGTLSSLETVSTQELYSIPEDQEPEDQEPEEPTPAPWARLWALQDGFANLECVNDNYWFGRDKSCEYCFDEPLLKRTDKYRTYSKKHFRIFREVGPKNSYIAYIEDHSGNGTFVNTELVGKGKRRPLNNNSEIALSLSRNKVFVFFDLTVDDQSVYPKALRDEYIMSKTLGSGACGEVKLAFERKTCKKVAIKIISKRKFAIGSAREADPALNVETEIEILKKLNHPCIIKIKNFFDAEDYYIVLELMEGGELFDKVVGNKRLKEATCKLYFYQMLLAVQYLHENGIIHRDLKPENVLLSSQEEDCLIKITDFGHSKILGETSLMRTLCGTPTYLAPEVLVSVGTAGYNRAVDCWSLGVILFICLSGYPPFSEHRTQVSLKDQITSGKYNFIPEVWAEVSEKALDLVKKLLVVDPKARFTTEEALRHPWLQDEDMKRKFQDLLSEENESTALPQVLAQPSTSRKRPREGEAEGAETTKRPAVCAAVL

Assays:
Assay in all cases: number of time points (of 5) at which kinase-Nluc abundance scored as decreased, DMSO-normalised (count); higher = more persistent destabilization
Settings in all cases: K562; 2-18 h
[1] = target: CAMK2A (UniProt Q9UQM7)
[2] = target: CAMK2G (UniProt Q13555)
[3] = target: CDK10 (UniProt Q15131)
[4] = target: CDK2 (UniProt P24941)
[5] = target: CDK3 (UniProt Q00526)
[6] = target: CDK5 (UniProt Q00535)
[7] = target: CDK6 (UniProt Q00534)
[8] = target: CSF1R (UniProt P07333)
[9] = target: CSK (UniProt P41240)
[10] = target: CSNK1A1 (UniProt P48729)
[11] = target: CSNK1D (UniProt P48730)
[12] = target: DDR1 (UniProt Q08345)
[13] = target: DYRK1B (UniProt Q9Y463)
[14] = target: DYRK2 (UniProt Q92630)
[15] = target: EGFR (UniProt P00533)
[16] = target: EGFR_G719S (UniProt P00533)
[17] = target: EGFR_G719S_T790M (UniProt P00533)
[18] = target: EGFR_L718V (UniProt P00533)
[19] = target: EGFR_L858R (UniProt P00533)
[20] = target: CHEK2 (UniProt O96017)

Measured: number of time points

NC(=O)c1ccc2nc(-c3ccc(Oc4ccc(Cl)cc4)cc3)[nH]c2c1 (10 µM)
not listed: [20]
0: all other assays above

CC[C@H](CO)Nc1nc(NCc2ccccc2)c2ncn(C(C)C)c2n1 [Seliciclib] (10 µM)
not listed: [4] | [5] | [6]
0: all other assays above

Nc1nc(N)c(N=O)c(OCC2CCCCC2)n1 (10 µM)
not listed: [4]
0: all other assays above

CCN(CCCOc1ccc2c(Nc3cc(CC(=O)Nc4cccc(F)c4)[nH]n3)ncnc2c1)CCOP(=O)(O)O [Barasertib] (10 µM)
not listed: [6]
0: all other assays above

CCCS(=O)(=O)Nc1ccc(F)c(C(=O)c2c[nH]c3ncc(Cl)cc23)c1F (10 µM)
not listed: [8] | [14]
0: all other assays above

O=C1NC(=NCc2cccs2)S/C1=C\c1ccc2ncccc2c1 (10 µM)
not listed: [4]
0: all other assays above

Cc1[nH]c(/C=C2\C(=O)Nc3ccc(S(=O)(=O)Cc4c(Cl)cccc4Cl)cc32)c(C)c1C(=O)N1CCC[C@@H]1CN1CCCC1 (2.5 µM)
not listed: [2]
0: all other assays above

Nc1nc(OCC2CCCCC2)c2[nH]cnc2n1 (10 µM)
not listed: [4]
0: all other assays above

COc1cc2ncnc(Nc3ccc(O)cc3)c2cc1OC (10 µM)
not listed: [4]
0: all other assays above
